Results are given in words; binding and its absence hold for the method and conditions named. Binding seen in cells or lysates may run through a third protein. Sequences can lack the tags named with a protein.
Target: T1, TAP-Pellino-1 (Flag-tagged Pellino-1) (human) (UniProt Q96FA3)
T1 sequence: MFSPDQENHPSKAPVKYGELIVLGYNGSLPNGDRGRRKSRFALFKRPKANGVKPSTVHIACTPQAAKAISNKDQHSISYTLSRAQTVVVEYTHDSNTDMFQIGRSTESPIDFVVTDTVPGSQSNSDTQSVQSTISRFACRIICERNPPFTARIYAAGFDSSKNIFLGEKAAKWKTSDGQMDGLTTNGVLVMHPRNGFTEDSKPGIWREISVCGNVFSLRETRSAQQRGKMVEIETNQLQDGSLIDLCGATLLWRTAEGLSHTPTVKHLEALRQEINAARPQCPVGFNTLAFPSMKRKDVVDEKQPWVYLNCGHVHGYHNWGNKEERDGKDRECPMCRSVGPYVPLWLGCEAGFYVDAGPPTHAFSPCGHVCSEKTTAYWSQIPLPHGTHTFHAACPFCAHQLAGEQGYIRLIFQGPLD
Test: pull-down; TAP-Pellino-1 (Strep-Flag) transfected 293T cells lysed in NETN buffer (100 mM NaCl, 1 mM EDTA, 20 mM Tris-HCl pH 8.0, 0.5% NP-40); streptavidin-sepharose beads 8 h at 4 °C; bound proteins immunoblotted

In the case of “E-cadherin (endogenous) (human (endogenous in 293T))”, the binding is reported as “no binding”.

Source: article PMC5457685, “Pellino-1 promotes lung carcinogenesis via the stabilization of Slug and Snail through K63-mediated polyubiquitination” (Cell Death and Differentiation, 2016)
